# Test results as given in the supplement of paper PMC9135407.
# Several values for one entry are separate records, joined by “and”; a condition that tells them apart may be missing. Identical values can stand only once. Counter-ions that a name gives are not always drawn. ± gives the standard deviation of the averaged measurements. The list shows a part of the results. Plates or batches differ in their baseline, so values are only roughly comparable.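 Culture-activated primary human stellate myofibroblasts, where regained lipid droplets signal inactivation. Value: share of Hoechst-counted cells above a per-plate Bodipy cutoff, in duplicate wells, with DMSO negative and nortriptyline positive controls on each plate. Hits: a control-normalized score above the plate's top-tenth-percentile nortriptyline wells, or one of a plate's three best wells. Final well concentrations are not given.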
# Test system: primary human hepatic stellate cells (donor 1)
# Experiment: percent Bodipy-positive cells; higher = more lipid droplet accumulation
# Details: 48 h
# [1] = library stock concentration: 10 mM
# [2] = library stock concentration: 3.33 mM
# [3] = library stock concentration: 80 uM
# [4] = library stock concentration: 400 uM
# [5] = library stock concentration: 2 mM
structure (smiles),measurement,setting,value
CCCCOC(=O)NS(=O)(=O)c1sc(CC(C)C)cc1-c1ccc(Cn2c(CC)nc3c(C)cc(C)nc32)cc1,percent Bodipy-positive cells,[1],50 ± 3%
Cl.C(=C\CCNC)(/c1c(cccc1)CC2)\c3c2cccc3 [Nortriptyline hydrochloride],percent Bodipy-positive cells,,88.4 ± 4.2%
O=C(Cc1cccs1)N[C@@H]1C(=O)N2C(C(=O)[O-])=C(C[n+]3ccccc3)CS[C@H]12 [Cephaloridine],percent Bodipy-positive cells,[1],34.7 ± 12%
CO/N=C(\C(=O)N[C@@H]1C(=O)N2C(C(=O)O)=C(CSc3nc(=O)c(O)nn3C)CS[C@H]12)c1csc(N)n1 [Ceftriaxone sodium trihydrate],percent Bodipy-positive cells,library stock concentration: 3.1 mM,16 ± 2.4%
same,percent Bodipy-positive cells,[1],40.5% and 53.3%
CO/N=C(\C(=O)N[C@@H]1C(=O)N2C(C(=O)O)=C(CSc3nc(=O)c(O)nn3C)CS[C@H]12)c1csc(N)n1 [Ceftriaxone sodium],percent Bodipy-positive cells,[1],42.8 ± 9.9%
Oc1ccccc1O [Pyrocatechol],percent Bodipy-positive cells,[1],32.8 ± 2.2%
COc1cc(OC)c2c(=O)[nH]c(-c3cc(C)c(OCCO)c(C)c3)nc2c1,percent Bodipy-positive cells,[2],26.3 ± 4.7%
same,percent Bodipy-positive cells,[1],49.1 ± 3.2%
COc1cccc(NC(=O)/C=C/c2ccc(Cl)cc2)c1,percent Bodipy-positive cells,[1],39.8 ± 1.5%
CCOC(=O)OC(C)OC(=O)[C@@H]1N2C(=O)[C@@H](NC(=O)[C@H](N)c3ccccc3)[C@H]2SC1(C)C (some centres undefined) [Bacampicillin hydrochloride],percent Bodipy-positive cells,,29 ± 6.3%
same,percent Bodipy-positive cells,library stock concentration: 4 mM,22.6 ± 2.8%
"CCCCC/C=C\C/C=C\C/C=C\CC1OC1CCCC(=O)O (centres undefined) [5,6-Epoxyeicosatrienoic acid]",percent Bodipy-positive cells,library stock concentration: 100 uM,12.4 ± 7.9%
CC(C)CCCCCCC/C=C/C(=O)O [trans-.DELTA.2-11-methyl-Dodecenoic Acid],percent Bodipy-positive cells,library stock concentration: 1 mM,9.89 ± 1.2%
NCC(O)c1ccc(O)c(O)c1 (racemic),percent Bodipy-positive cells,[1],30.7 ± 3.6%
O=C1CCC(c2ccc(-n3ccnc3)cc2)=NN1 [Imazodan],percent Bodipy-positive cells,[1],42.6 ± 30%
Cc1nc(NC(=O)N2CCC[C@H]2C(N)=O)sc1-c1csc(C(C)(C)C)n1,percent Bodipy-positive cells,[3],5.99 ± 1.7%
same,percent Bodipy-positive cells,[4],8.028 ± 0.025%
same,percent Bodipy-positive cells,[5],10.8 ± 8.1%
same,percent Bodipy-positive cells,[2],7.18 ± 2.6%
same,percent Bodipy-positive cells,[1],14.9% and 10.8%
COC1=C(OC)C(=O)C(CCCCCCCCCCO)=C(C)C1=O [Idebenone],percent Bodipy-positive cells,[2],7.92 ± 1.8%
same,percent Bodipy-positive cells,library stock concentration: 5.9 mM,7.52 ± 0.41%
same,percent Bodipy-positive cells,[1],13.4 ± 2.1%
O=C(NCCCNc1nc(Nc2cccc(NC(=O)N3CCCC3)c2)ncc1I)c1cccs1,percent Bodipy-positive cells,[1],91.79 ± 0.42%
CCNC(=O)N1CCN(CCCC(c2ccc(F)cc2)c2ccc(F)cc2)CC1 [Amperozide hydrochloride],percent Bodipy-positive cells,[1],78.9 ± 6.9%
Fc1ccc(C(OCCCc2cnc[nH]2)c2ccc(F)cc2)cc1,percent Bodipy-positive cells,[1],80.1 ± 1%
C=CC(=O)Nc1cc(NC(=O)c2ccc(C)c(NC(=O)c3ccno3)c2)cc(C(F)(F)F)c1,percent Bodipy-positive cells,[3],29.7 ± 36%
same,percent Bodipy-positive cells,[4],13.4 ± 5.7%
same,percent Bodipy-positive cells,[5],10.5 ± 4.9%
same,percent Bodipy-positive cells,[1],36.6 ± 3.7%
Cn1c(=O)c(-c2c(Cl)cccc2Cl)cc2cnc(Nc3ccc(N4CCOCC4)cc3)nc21,percent Bodipy-positive cells,[1],25.5 ± 2%
Cn1cc(-c2ccc(F)c(C(F)(F)F)c2)nc1C1CCN(c2ncnc3[nH]ncc23)CC1,percent Bodipy-positive cells,[3],3.91 ± 1.9%
same,percent Bodipy-positive cells,[4],3.75 ± 2.4%
same,percent Bodipy-positive cells,[5],14 ± 3.4%
same,percent Bodipy-positive cells,[1],36.6 ± 6.9%
O=C(Nc1c[nH]nc1-c1nc2ccc(CN3CCOCC3)cc2[nH]1)NC1CC1,percent Bodipy-positive cells,[3],63 ± 1.4%
same,percent Bodipy-positive cells,[4],77.7 ± 4.4%
same,percent Bodipy-positive cells,[5],61% and 83.2%
same,percent Bodipy-positive cells,[2],81.6 ± 6%
same,percent Bodipy-positive cells,[1],96.3% and 85.7% and 94.9%
CCOC(=O)[C@H](CCc1ccccc1)N[C@H]1CCc2ccccc2N(CC(=O)O)C1=O,percent Bodipy-positive cells,[1],9.441 ± 0.055%
CCOC(=O)[C@H](CCc1ccccc1)N[C@H]1CCc2ccccc2N(CC(=O)O)C1=O [Benazepril HCl],percent Bodipy-positive cells,[2],7.02 ± 1.7%
same,percent Bodipy-positive cells,[1],15.6 ± 3.3%
CNC(=O)[C@@H](Cc1ccccc1)N(C)C(=O)[C@@H](Cc1ccc2ccccc2c1)N(C)C(=O)/C=C/CC(C)(C)N.CNC(=O)[C@@H](Cc1ccccc1)N(C)C(=O)[C@@H](Cc1ccc2ccccc2c1)N(C)C(=O)/C=C/CC(C)(C)N.O=C(O)/C=C/C(=O)O [Tabimorelin],percent Bodipy-positive cells,[1],82.6 ± 5.3%
C=C1CC[C@H](O)C/C1=C/C=C1\CCC[C@]2(C)[C@@H]([C@H](C)CCCC(C)(C)O)CC[C@@H]12 [Calcifediol],percent Bodipy-positive cells,[2],6.66 ± 0.81%
same,percent Bodipy-positive cells,library stock concentration: 5 mM,5.57 ± 0.44%
same,percent Bodipy-positive cells,[1],32.2 ± 5.7%
CC(C)CC(=O)Nc1n[nH]c2c1CN(C(=O)C1CCN(C)CC1)C2(C)C,percent Bodipy-positive cells,[3],12.4 ± 2.7%
same,percent Bodipy-positive cells,[4],36.8 ± 8%
same,percent Bodipy-positive cells,[5],32.8 ± 3.5%
same,percent Bodipy-positive cells,[2],49.1 ± 1.2%
same,percent Bodipy-positive cells,[1],60.1% and 42.4%
O=C(NCCS(=O)(=O)c1ccc(C(F)(F)F)cn1)c1ccc(Cl)cc1,percent Bodipy-positive cells,[2],24.6 ± 2.1%
same,percent Bodipy-positive cells,[1],52.6 ± 27%
OC(c1ccccc1)C1CCN(CCc2ccccc2)CC1 (centres undefined),percent Bodipy-positive cells,[1],16.2 ± 1.9%
O=C([O-])[C@H]1/C(=C/CO)O[C@@H]2CC(=O)N21.[Li+] [Clavulanate lithium],percent Bodipy-positive cells,library stock concentration: 9.7 mM,12.5 ± 5.4%
CC(=O)N[C@@H](CC(C)C)C(=O)O [N-Acetyl-L-leucine],percent Bodipy-positive cells,,7.46 ± 3.8%
CC(=O)N[C@@H](CC(C)C)C(=O)O [Acetyl-l-leucine],percent Bodipy-positive cells,[1],17.2 ± 10%
